Laboratory results taken from publication PMC9122601.
The exact form of at least one protein or probe is not confirmed. At least one verdict was read from the data and is not stated in words by the source.

Target: His6-BrxR (BrxR-Efer) (Escherichia fergusonii (plasmid pEFER)) (UniProt B7L3Y3)
Experiment: competition with a labelled probe
Settings: 20-fold excess versus labelled WT probe; EMSA: 10 mM Tris-HCl pH 7.9, 150 mM KCl, 0.5 mM EDTA, 0.2 mM DTT, 0.1% Triton X-100, 13% glycerol (1x of 5x buffer), 1 ug poly(dI-dC) per 10 ul, 2500 fmol probe; recombinant protein; residues 14-308; protein details: N-terminal His6

GACGACTTGTTGATACTATGAAACCTACTGAAAAACAGTAGGTTGCTTGATGGCATTCAATCGATGGCTTAAGCTTTTGTCAGTGCGCA (double strand) [Unlabelled WT IR1-IR2 competitor]
binding result: binds
